Measurements reported in publication PMC3837015.
Changes are numbered by the printed parent chain. No constants are given. Whether binding was seen depends on the method and setting. Binding seen in cells or lysates may run through a third protein. Some binding calls cover weakened binding; strength is not graded here. For some assays here: Tags and fused reporters may be left off the sequences shown.

Sequences of proteins named here, by UniProt entry; tags and fusion partners are left off.
UniProt Q13547: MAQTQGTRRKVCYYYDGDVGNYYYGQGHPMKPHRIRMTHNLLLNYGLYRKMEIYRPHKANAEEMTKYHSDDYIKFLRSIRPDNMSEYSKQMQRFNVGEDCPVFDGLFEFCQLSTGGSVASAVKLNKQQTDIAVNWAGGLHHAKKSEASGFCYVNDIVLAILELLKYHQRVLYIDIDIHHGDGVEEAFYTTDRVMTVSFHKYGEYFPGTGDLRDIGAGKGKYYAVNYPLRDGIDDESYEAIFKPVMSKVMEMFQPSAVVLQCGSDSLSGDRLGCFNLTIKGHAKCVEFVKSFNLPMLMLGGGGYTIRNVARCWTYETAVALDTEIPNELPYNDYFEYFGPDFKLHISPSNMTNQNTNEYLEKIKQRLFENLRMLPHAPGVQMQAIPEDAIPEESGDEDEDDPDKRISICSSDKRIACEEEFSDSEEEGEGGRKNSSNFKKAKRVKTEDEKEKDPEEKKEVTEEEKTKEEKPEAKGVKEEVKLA

What was measured:
[1] = target: T1, BiFC maspin^WT YC (maspin-YC fusion protein) (human) (UniProt P36952); assay: split reporter; BiFC with YFP fragments: maspin-YC and HDAC1-YN co-expressed by double transient transfection in live PC3 and DU145 cells; fluorescent complexes matured 24 hrs at 30°C before live cell imaging
T1 sequence: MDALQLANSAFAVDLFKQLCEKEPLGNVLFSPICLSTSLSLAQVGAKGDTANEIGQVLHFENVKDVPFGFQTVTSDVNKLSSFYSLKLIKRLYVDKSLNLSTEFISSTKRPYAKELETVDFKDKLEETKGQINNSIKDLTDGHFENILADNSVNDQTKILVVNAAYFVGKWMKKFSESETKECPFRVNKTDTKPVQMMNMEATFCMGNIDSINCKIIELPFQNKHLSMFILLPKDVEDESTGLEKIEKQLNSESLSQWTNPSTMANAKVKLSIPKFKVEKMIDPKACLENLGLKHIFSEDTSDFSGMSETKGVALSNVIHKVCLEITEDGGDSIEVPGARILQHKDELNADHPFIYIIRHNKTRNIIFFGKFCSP

[2] = target: T2, BiFC maspin^D346E YC (human) (UniProt P36952); assay: as above
T2 sequence: T1 sequence with D346E

binding [1]: binds
binding [2]: binds
Substance: BiFC HDAC1YN (HDAC1-YN fusion protein) (from UniProt Q13547 1-482) (enzyme)
